Most values lie at the floor of the assay. Slopes are relative: functional sequences can read slightly below zero.

The data set concerns Saccharomyces cerevisiae PS128 hsf1 delta, HSF1(1-493) fusion. The data set can be described thus: growth estimate (transactivation domain function in HSF1 fusion, heat-shock survival) (a.u. (slope of normalised read count over time)); higher = stronger growth at 37°C, i.e. more transactivation activity. The settings on record: library: random library. As for the experimental part: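 Random 60-nt DNA library encoding peptides of up to 20 aa, fused to the C-terminus of yeast HSF1 residues 1-493 (C-terminal TAD deleted) and expressed from the native HSF1 promoter on a CEN plasmid in hsf1-deleted S. cerevisiae PS128. Cells were selected at 37°C on -trp 5-FOA plates for 0, 2, 4, 6 and 8 days and amplicons were sequenced. Growth estimate is the slope of a robust linear fit of total-sum-normalised read counts (normalised to the first time point) over time, using at least 2 replicates. Sequences are classed functional (TAD activity) above a threshold of -0.13, set from stop-codon control sequences.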
On to LTFFPEGREYSWIERYTVIG, for which the growth estimate is < -0.25.
As for PGLCSGRLGFRLSYTH, the growth estimate was < -0.25.
With PSWCSQWALVGGFKVVYTR the figure was < -0.25; with SRGLSYLLVAVER, < -0.25.
In the case of PRWRVSRSWAQEIRGAGMEW it was < -0.25.
With NSTHGTNCTGSPVVLKLPER the figure was < -0.25; with WVIDALVECDEPTAYDREPP, < -0.25; with IIVRTPTLEWPYGRHHDAVH, < -0.25.
NVYRLAASIAD: the growth estimate is < -0.25.
With HTWPG the figure was < -0.25; with YRHE, < -0.25.
In the case of RLTRVFYRDVTTGSWRRSLT it was < -0.25; in that of HASFSREPEAFSATVIC, < -0.25; in that of EATRERRSRYEQGHDFR, < -0.25.
In the case of CRGCVTNGRKKRMVMCHPEQ it was < -0.25; in that of QSILSV, < -0.25; in that of IGVKVRIECSHTGKQVQP, < -0.25.
Consider YTNRLSRSEQGRARPFRKQN, for which the growth estimate was < -0.25.
With TATRLSSSVWVLSMCGGSDP, the growth estimate is < -0.25.
With WGELFFIWCPDNARMTGYAP the figure was < -0.25.
With HSYAMFRRGSGGETMGVLVP the figure was < -0.25; with ATPGNQSIRAQYRCEKRGVQ, < -0.25; with QWTTEPADVLW, 0.595.
As to VVVSGNNGTVCALVVMHSIQ, the growth estimate is < -0.25.
PPRPVQFWECGYRMVV: the growth estimate was < -0.253.
In the case of VGLTRVVHSQGSKSSVRLES it was < -0.25; in that of RAVPTPVVRGWVM, < -0.25.
In the case of LWEP it was < -0.25.
In the case of DEDVR it was < -0.25; in that of CIRCSYRIPSGPGAIIQFSE, < -0.25; in that of LYM, < -0.25.
For AVPDPGRTVNRPWLNIEYGQ, the growth estimate was < -0.25.
Turning to PSREHQYKSPISNGRGTPER, the growth estimate is < -0.25.
Take NLSVEGGSGGIGSPQAP: the growth estimate was < -0.25.
Take RLSYEGGLVPTDPHAYAAPK: the growth estimate was < -0.25.
In the case of IGHGLGKLAGAD, the growth estimate was < -0.25.
As to HRDTCQLNGWDPFKLETIVV, the growth estimate is < -0.25.
With LFGEGSWLGCFS the figure was < -0.25.
With PSFRGALPWLSMCNGGHVDG the figure was < -0.25; with PLGGRQVIRYGIYAGEIHWM, < -0.25; with SSKYAQFYVD, < -0.25.
In the case of TVKMRLNTMSRAETGMRASL it was < -0.25; in that of GLVRRRTPVLAVYGAILITL, < -0.25; in that of HMRPMNL, < -0.25.
As to GLSAEHRLGHVSPFVADTVR, the growth estimate is < -0.25.
In the case of DVYNFNVKDHIGVLVGHEAA it was < -0.25.
Take KDPSLQSRV: the growth estimate was < -0.25.
In the case of ARTHLS it was < -0.25; in that of IDGNLYILLSGLGCCPIDGP, < -0.25.
With GIQRPEESTAPVPVGSGENW the figure was < -0.25; with ISLYEACIYVRLRTWQLHPP, < -0.25.
In the case of FPGGTVTFRQYLGDVAFDRL it was < -0.25; in that of TPDGQWDTLQRFKPRPHLAR, < -0.25.
With GGGRSEFFASWGSDKRTLSK, the growth estimate was < -0.25.
With RESTAL the figure was < -0.25; with AVEYASQRSIVRPLGHSTVT, < -0.25.
Regarding REFAG, the growth estimate was < -0.25.
Regarding HANIISLPV, the growth estimate is < -0.25.
In the case of CLPHTRAQ it was < -0.25.
In the case of SGYPPGRTRLVRSKPYWKLA it was < -0.25; in that of VSEQCGMVGGLTSAHRA, < -0.25.
With AHEKSAENAL the figure was < -0.25; with VQGSAAGGASASRSLY, < -0.25.
Regarding VSSPWSFLYSLRSGL, the growth estimate was < -0.25.
In the case of RMRRLERVCSWLGYKGNRMA it was < -0.25; in that of RKTWRCRRAWGSVLMSICLP, < -0.25.
With AQSSCI the figure was 0.181; with VRRGSAIIGRSKVPLGKEVL, < -0.25.
With RAGESVVSELIAIKLTIPCP, the growth estimate was < -0.25.
With RIRDI the figure was < -0.25.
With SSDAVHVAAAIRPEGWRPDL the figure was < -0.25.
With VELQGTIITVTNAFLVILFF the figure was -0.245.
For the substance HRDCL, the growth estimate was < -0.25.
In the case of YCGSQGKRRGTPFSSSEQIA it was < -0.25.
With CYGVLQRRSIAYAES the figure was < -0.25.
In the case of KGKQHWLMD it was < -0.25.
As to APGELATSERHVPFLR, the growth estimate is < -0.25.
With RTRSLAESDND the figure was < -0.25; with PIRIDLETVV, < -0.25.
In the case of RSDGFP it was < -0.25; in that of CGGVMAGMGLGTGSHLCEL, < -0.25.
In the case of YASSTPGVYVRECTKKCAEA it was < -0.25; in that of EVMSDLTRQLEVEGSIASQV, < -0.25.
For LNSIRLVLTCI, the growth estimate is < -0.25.
With PCSIMRRSHRARVVSL the figure was < -0.25; with GEHNKCGWRELAGRQLSFAE, < -0.25; with NSFGRAI, < -0.25.
With LYRSCFGFGS the figure was < -0.25; with CPTRLL, < -0.25.
In the case of AASFDQEQ it was < -0.25; in that of GYW, < -0.25.
Take RDTMRVNGILNWEPMRRWGW: the growth estimate is < -0.25.
With VRGSKLKVILLPLV the figure was < -0.25.
For AGAR, the growth estimate was < -0.25.
RYVRGHGMDVNGESATHTP: the growth estimate was < -0.25.
In the case of GHTIHQEENAIHAADQLFAP, the growth estimate is < -0.25.
With IDWTIIRCAQPKIRDWTSNL, the growth estimate was < -0.25.
As for EAGTGVQTHYALPGILHP, the growth estimate is < -0.25.
In the case of FESSSRRSHLGNLCLEYLYI it was < -0.25; in that of DGHELDWFPTT, < -0.25.
For GWSSVKYGATAPCRECVLYP, the growth estimate is < -0.25.
In the case of PAKREEGVFCQLDDTLRVAY it was < -0.25.
In the case of RCVVVVGANNRKVMPLRRHR it was < -0.25.
With GKFERYLQVVGHGNGPVTCL, the growth estimate was < -0.25.
With TGSH the figure was < -0.253; with VATKQCTPLVSIVTLGGGVS, < -0.25; with RTER, < -0.25.
Turning to WITNVMSDHYCRNGPAPGLE, the growth estimate was < -0.25.
As for SLGMISKSSKGRDSEGTLPS, the growth estimate was < -0.25.
In the case of RFAWSGNTAPPIETMNLIVP it was < -0.25.
Turning to DTYGRGSAIGSSQEGV, the growth estimate is < -0.25.
With DTFCRQTYARCSRRPYAIVK the figure was < -0.25; with PPRS, < -0.25; with GGASRGAIVKNIKAAVHPLH, < -0.25.
With RVMAIGWAGWATRVGGGSAR the figure was < -0.25.
In the case of YAINKLPRCS it was < -0.25; in that of SSFRGRQPP, < -0.25; in that of GGVNKTQAIARSGTA, < -0.25.
For FRK, the growth estimate was < -0.25.
In the case of GYSLVTYVALLPRAGGIRSQ it was < -0.25.
With SKRQEKEQCPPVASAHSVRP the figure was < -0.25; with TSVR, < -0.25; with SVHRYGSGTTAVV, < -0.25.
With LRYIEV the figure was < -0.25; with AGNRSFTGLRQPRMDVALWV, < -0.25; with DSLVSW, < -0.25.
In the case of ARSALVGCQRHGMVAADSAY, the growth estimate is < -0.25.
In the case of EQESDQWKGWGRLIPTCHVS it was < -0.25; in that of QLLEERRPGLGVWS, < -0.25.
In the case of LRLTISR it was < -0.25; in that of REVPDRRRG, < -0.25; in that of SFWLGGLSIGCMSVFKFPG, < -0.25.
In the case of PCKRCGCQCHNGGIQSCYGD it was < -0.25.
As for GCKGLKAHSVGSGDGCSPIS, the growth estimate is < -0.25.
As for ESESEAGTC, the growth estimate is < -0.25.
In the case of GKDGAANVTG it was -0.243.
Consider SDKEDNCAKKYGPGSPLLLD, for which the growth estimate is < -0.25.
In the case of HGRHREA it was < -0.25; in that of ELLILITKSAALDQLVFARS, < -0.25.
In the case of PRRSFGENGFLKGWIRVRPI it was < -0.25; in that of LLHWLTTQSL, < -0.25; in that of HMDWVIN, < -0.25.
With TSDGQGYIRPPARQFRKWR the figure was < -0.25.
As for AHRERLTEVRA, the growth estimate was < -0.25.
With HPLTHAFFR the figure was < -0.25; with GRIRTRWGGRRLCTTHTGPV, < -0.25; with PPSVGSGRREPYFTPVARAD, < -0.25.
For SFVVCRNRGTETL, the growth estimate is < -0.25.
With RGDTYSERQYI the figure was < -0.25; with SRCSSEIGDGQLTLWPRHLT, < -0.25.

The record behind these values is the supplement of paper PMC5949888.
